The values that follow come from PMC9368268.

Protein sequences, listed by entry. Tags and fused reporters are not part of them. Residues count along the entry.
UniProt P35363: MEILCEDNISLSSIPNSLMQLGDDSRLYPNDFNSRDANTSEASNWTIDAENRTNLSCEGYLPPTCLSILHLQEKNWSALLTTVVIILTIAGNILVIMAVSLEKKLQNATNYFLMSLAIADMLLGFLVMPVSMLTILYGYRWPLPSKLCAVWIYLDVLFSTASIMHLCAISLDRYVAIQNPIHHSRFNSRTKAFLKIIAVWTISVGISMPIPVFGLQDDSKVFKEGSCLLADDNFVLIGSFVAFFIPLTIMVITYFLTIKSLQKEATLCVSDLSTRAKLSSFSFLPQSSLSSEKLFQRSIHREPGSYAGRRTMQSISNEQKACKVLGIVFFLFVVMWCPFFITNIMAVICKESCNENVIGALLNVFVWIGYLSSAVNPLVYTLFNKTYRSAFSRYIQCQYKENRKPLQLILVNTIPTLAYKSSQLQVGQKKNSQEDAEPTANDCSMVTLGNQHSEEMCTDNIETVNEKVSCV
UniProt P15209, residues 32-821: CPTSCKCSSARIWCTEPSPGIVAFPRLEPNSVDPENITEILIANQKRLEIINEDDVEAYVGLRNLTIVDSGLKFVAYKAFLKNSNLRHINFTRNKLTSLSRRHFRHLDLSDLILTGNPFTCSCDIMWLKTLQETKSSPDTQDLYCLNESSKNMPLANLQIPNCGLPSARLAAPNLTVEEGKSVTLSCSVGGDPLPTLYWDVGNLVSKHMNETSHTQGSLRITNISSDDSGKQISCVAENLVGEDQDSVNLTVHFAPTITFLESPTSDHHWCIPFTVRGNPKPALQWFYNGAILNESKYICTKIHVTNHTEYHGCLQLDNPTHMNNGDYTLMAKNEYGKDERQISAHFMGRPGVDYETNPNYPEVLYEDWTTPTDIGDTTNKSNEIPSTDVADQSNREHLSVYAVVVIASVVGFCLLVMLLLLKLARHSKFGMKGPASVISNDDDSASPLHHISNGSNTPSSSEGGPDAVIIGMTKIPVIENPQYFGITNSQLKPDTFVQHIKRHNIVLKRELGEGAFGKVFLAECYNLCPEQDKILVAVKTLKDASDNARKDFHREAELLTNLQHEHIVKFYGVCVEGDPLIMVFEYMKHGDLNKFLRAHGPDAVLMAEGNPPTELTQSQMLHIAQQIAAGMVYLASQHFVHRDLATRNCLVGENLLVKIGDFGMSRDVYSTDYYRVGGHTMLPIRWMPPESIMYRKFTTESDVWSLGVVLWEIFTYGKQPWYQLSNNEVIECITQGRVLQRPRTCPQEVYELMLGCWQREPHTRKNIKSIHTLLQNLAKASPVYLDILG

Results are given in words; binding and its absence hold for the method and conditions named. Binding seen in cells or lysates may run through a third protein. Some binding calls cover weakened binding; strength is not graded here.

The target of assay [1] is HA-tagged 5-HT2A receptor (mouse) (UniProt P35363). In words: condition: only cells expressing only one receptor type mixed prior to lysis; co-IP; control: N1E-115 cells expressing only one receptor type (HA-5-HT2A or GFP-TrkB) mixed prior to lysis, analysed in parallel.
Assay [2] shares this target. In words: co-IP; lysates of N1E-115 cells co-expressing HA-5-HT2A and GFP-TrkB; IP with anti-GFP by the methods and the legend (anti-HA by the results text); blot with anti-GFP and anti-HA.
Assay [3] has as its target Endogenous 5-HT2A receptor (mouse brain) (mouse (endogenous in C57BL/6J brain)) (UniProt P35363). In words: co-IP; membrane-fraction lysates of frontal cortex, hippocampus and striatum of adult C57BL/6J mice; IP with goat anti-5-HT2A and Protein A-Sepharose; blot with anti-TrkB.
The target is the same in assay [4]. In words: proximity ligation; in situ PLA (Duolink) on 20 um mouse brain sections (frontal cortex, hippocampus, striatum) with anti-5-HT2A and anti-TrkB antibodies; negative control without primary antibodies.

For “GFP (mEGFP)-tagged TrkB (from UniProt P15209 32-821) (receptor)”, the binding result in assay [1] is “no binding”; in assay [2] it was “binds”.

As for “Endogenous TrkB receptor (mouse brain) (from UniProt P15209 32-821)”, the binding entry in assay [3] and in assay [4] was “binds” in each case.
